Experimental data: PubChem BioAssay AID493246 (Drosophila RNAi Screening Center, 2011)

Assay: 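Identify essential fly genes by loss of cell viability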 (primary screen)
System: Drosophila Kc and S2R+ cells
Reagent: long dsRNA against Drosophila genes
Measured: 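Cell number per well after knock-down, printed as raw plate values; calls were based on per-plate z-scores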
Scale: Kc cell number and S2R+ cell number: higher = more cells remaining
Active means: 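Counted as a hit if cell number falls by a z-score of at least 3 within its plate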
In all, the deposit lists about 21,000 reagents; this is a random part of those with a known target gene and a result. Over the whole deposit, 429 (2%) were called active. 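Values are raw and not normalised between plates; calls rest on per-plate z-scores that were not deposited.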 A number with no mark means an inactive call. The numbers tell different reagents against one gene apart. Not given: the amount of reagent, the time to read-out.

How did the screen score wor?
Kc cell number, rep 1: 1.46e6; Kc cell number, rep 2: 1.56e6; S2R+ cell number, rep 1: 1.20e6; S2R+ cell number, rep 2: 1.34e6

For Rip11, how do the results read?
Kc cell number, rep 1: 1.52e6; Kc cell number, rep 2: 1.55e6; S2R+ cell number, rep 1: 1.04e6; S2R+ cell number, rep 2: 1.17e6

What did the screen give for hoka?
Kc cell number, rep 1: 1.48e6; Kc cell number, rep 2: 1.58e6; S2R+ cell number, rep 1: 1.15e6; S2R+ cell number, rep 2: 1.21e6

How did the screen score GstT4?
Kc cell number, rep 1: 7.01e5; S2R+ cell number, rep 1: 9.87e5

What did the screen give for Ppcs?
Kc cell number, rep 1: 1.53e6; Kc cell number, rep 2: 1.57e6; S2R+ cell number, rep 1: 1.19e6; S2R+ cell number, rep 2: 1.20e6

An excerpt from above, showing only “S2R+ cell number, rep 1”.
hoka: 1.15e6
GstT4: 9.87e5

More results follow:
With CG31782 (retired record) #1, what was measured?
Kc cell number, rep 1: 1.41e6; Kc cell number, rep 2: 1.62e6; S2R+ cell number, rep 1: 9.36e5; S2R+ cell number, rep 2: 1.19e6

Which result is listed for CG31782 (retired record) #2?
Kc cell number, rep 1: 1.64e6; Kc cell number, rep 2: 1.66e6; S2R+ cell number, rep 1: 9.35e5; S2R+ cell number, rep 2: 1.17e6

With aph-1, what was measured?
Kc cell number, rep 1: 1.12e6; Kc cell number, rep 2: 1.31e6; S2R+ cell number, rep 1: 9.97e5; S2R+ cell number, rep 2: 9.92e5

With mad2, what was measured?
Kc cell number, rep 1: 1.47e6; Kc cell number, rep 2: 1.23e6; S2R+ cell number, rep 1: 1.03e6; S2R+ cell number, rep 2: 1.05e6

With CG14540, what was measured?
Kc cell number, rep 1: 1.47e6; Kc cell number, rep 2: 1.44e6; S2R+ cell number, rep 1: 8.61e5; S2R+ cell number, rep 2: 9.64e5

For Gs1, what does the deposit list?
Kc cell number, rep 1: 1.41e6; Kc cell number, rep 2: 1.40e6; S2R+ cell number, rep 1: 8.59e5; S2R+ cell number, rep 2: 7.62e5

Which result is listed for chm?
Kc cell number, rep 1: 1.33e6; Kc cell number, rep 2: 1.36e6; S2R+ cell number, rep 1: 7.02e5; S2R+ cell number, rep 2: 6.97e5
